# Paper PMC9370035, “Identification of 3-Oxindole Derivatives as Small Molecule HIV-1 Inhibitors Targeting Tat-Mediated Viral Transcription” (Molecules, 2022)
# Tested on: Tat-mediated HIV-1 transcription
# Experiment: microbe, parasite or virus in culture
# Type: cell-based
# Conditions: Human immunodeficiency virus 1, 24 h, read-out: IC50 (inhibition of Tat-mediated HIV-1 transcription)
# Protocol: bl-DTR (TZM-bl-derived dual Tat reporter) cells derived from TZM-bl cells by insertion of two doxycycline-inducible lentiviral vector-expressing flag-tagged tat and Renilla-luciferase (R-Luc) genes were used to determine simultaneously both activities of Tat-mediated HIV-1 transcription and general cellular transcription, as described previously. Determination of the inhibitory effect of the compounds on Tat-mediated transcription was performed as described previously. In brief, 1 × 10^4 of bl-DTR cells cultured in 96-well plates were treated with compounds at a final concentration of 3 μM (Figure 3C) or with 1:2 serially diluted compounds at concentrations ranging from 0 to 25 μM (Figure 4 and Table 3). Subsequently, doxycycline was treated at a final concentration of 50 ng/mL to induce Tat-mediated F-Luc and R-Luc. At 24 h after treatment, the activities of F-Luc and R-Luc were determined by using a Dual-Glo™ luciferase assay system (Promega, Madison, WI, USA) according to the manufacturer’s protocols. The data are presented as a percentage relative to the DMSO control (vehicle) in the presence of doxycycline, and the experiment was performed in triplicate.
smiles,measurement,value
"CC[C@H](CO)Nc1nc(NCc2ccccc2)c2ncn(C(C)C)c2n1 [seliciclib, Seliciclib, reference compound]",IC50,2410 ± 70 nM
